No constants are given. Whether binding was seen depends on the method and setting. Some binding calls cover weakened binding; strength is not graded here.

Chains of the proteins cited; added tags and fusions are not shown. Lines headed by an entry give the natural chain unless they say otherwise; changes in a name come on top. A line that says so, or that is headed by a name, gives the form on record, which may keep a tag or linker.
Human CD71-His6 (P02786, form named): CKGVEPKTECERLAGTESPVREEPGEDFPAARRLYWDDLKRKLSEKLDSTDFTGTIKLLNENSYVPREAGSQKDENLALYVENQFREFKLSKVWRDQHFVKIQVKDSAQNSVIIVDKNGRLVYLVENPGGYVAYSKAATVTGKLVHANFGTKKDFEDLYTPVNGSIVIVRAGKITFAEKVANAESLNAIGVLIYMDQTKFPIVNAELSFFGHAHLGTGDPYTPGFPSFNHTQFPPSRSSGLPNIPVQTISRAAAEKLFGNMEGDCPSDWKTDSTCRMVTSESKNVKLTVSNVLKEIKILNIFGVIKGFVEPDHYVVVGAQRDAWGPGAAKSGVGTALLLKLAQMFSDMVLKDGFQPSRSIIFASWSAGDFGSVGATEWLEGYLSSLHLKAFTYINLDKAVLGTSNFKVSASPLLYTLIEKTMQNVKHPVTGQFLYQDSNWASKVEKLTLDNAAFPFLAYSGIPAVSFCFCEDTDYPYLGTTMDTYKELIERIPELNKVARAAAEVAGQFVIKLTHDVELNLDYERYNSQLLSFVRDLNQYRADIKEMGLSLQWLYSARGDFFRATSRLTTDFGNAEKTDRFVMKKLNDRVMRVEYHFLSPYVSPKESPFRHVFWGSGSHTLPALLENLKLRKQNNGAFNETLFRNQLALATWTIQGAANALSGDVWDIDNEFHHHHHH

The values that follow come from patent US20220306759A1.

Assay [1] addresses Cyno CD71-His6 (cynomolgus monkey). The assay is described as follows: BLI (Octet). (BLI is a label-free optical method that tracks binding on a fibre tip over time.)
The next assay deals with Human CD71-His6 (human) (UniProt P02786). Briefly: BLI (Octet).

B1: anti-CD71 Fab fragment (papain digest of anti-CD71 21.12) (Fab, V domains shown)
VH: QVQLVQSGAEVKKPGASVKMSCKASGYTFTSYWMHWVRQAPGQGLEWIGAIYPGNSETGYAQKFQGRATLTADTSTSTAYMELSSLRSEDTAVYYCTRENWDPGFAFWGQGTLITVSS
VL: DIQMTQSPSSLSASVGDRVTITCSASSSVYYMYWFQQKPGKAPKLWIYSTSNLASGVPSRFSGSGSGTDYTLTISSMQPEDFATYYCQQRRNYPYTFGQGTKLEIKR
For the molecule B1, the binding result (in assay [1]; with Human CD71-His6 (human)) was “binds” throughout.
